Hit rate of the full screen: of about 350,000 compounds, about 1,200 (0.34%) were called active. Inconclusive results, whose numbers are uncertain, are shown with a selection of clear calls. The call rests on the fitted dose curve; in most records, active means well fitted inhibition curve with a large enough effect; inconclusive means small, poorly fitted or top-dose-only effect; inactive means no such curve, though single readings can be large or run the other way. Potencies of inconclusive entries are doubtful fits and often do not repeat. A structure can be active in one record and inactive in another.
What follows are molecules tested against DNA repair nuclease/redox regulator APEX1 (Homo sapiens) (UniProt P27695) (assay: qHTS Assay for Inhibitors of the Human Apurinic/apyrimidinic Endonuclease 1 (APE1)). Conditions: recombinant APE1, TAMRA/BHQ-2 abasic DNA cleavage fluorescence; series mostly up to 65.8 µM.
In short: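 Measures dequenching upon AP-site incision of a 5'-TAMRA/3'-BHQ-2 THF-containing duplex, 50 nM; human APE1 0.75 nM after 15 min room-temperature exposure to compound; kinetic three-point read at one-minute spacing.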
Further: nearly all actives have a fitted effect of over 55% in size.
Potency means the concentration at half of the fitted maximal effect.

By UniProt entry, the sequences of proteins in these tests, tags left out.
UniProt P27695, whole entry, looked up: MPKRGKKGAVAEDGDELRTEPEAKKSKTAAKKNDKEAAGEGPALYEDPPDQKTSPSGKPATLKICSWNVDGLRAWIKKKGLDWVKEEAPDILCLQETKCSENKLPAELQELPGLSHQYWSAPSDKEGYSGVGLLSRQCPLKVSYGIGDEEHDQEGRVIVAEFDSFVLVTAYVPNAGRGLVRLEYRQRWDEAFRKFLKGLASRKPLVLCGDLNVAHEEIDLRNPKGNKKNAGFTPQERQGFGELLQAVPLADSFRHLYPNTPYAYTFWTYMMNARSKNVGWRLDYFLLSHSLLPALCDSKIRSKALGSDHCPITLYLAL

Compound | Potency
COc1cc(C(C(=O)NC2CCCCC2)N(C(=O)c2cnccn2)c2ccccc2)cc(OC)c1OC (centres undefined) | inactive
O=C(O)c1ccc(Cn2cc(/C=C\[N+](=O)[O-])c3ccccc32)o1 | inactive
COc1cc(NC(=O)Nc2ccc3c(c2)OCO3)cc(OC)c1OC | inactive
O=[N+]([O-])c1ccc(Nc2nc(N/N=C/c3cccc(F)c3)nc(N3CCCC3)n2)cc1 | inconclusive: 0.005 µM [inhibitor, full curve, poor fit]
COc1ccccc1C1CC(c2ccc(NS(C)(=O)=O)cc2)=NN1C(=O)c1ccccc1 (centres undefined) | inactive
c1ccsc1 | inactive
CC(=O)N1[C@H](Cc2ccccc2)C=C[C@]1(C)C(=O)NCc1ccccn1 | inconclusive: 3.16 µM [inhibitor, single point]
O=C(N/N=C/c1ccc([N+](=O)[O-])o1)C1CC1 | inconclusive: 20 µM [inhibitor, partial curve]
Cc1ccc(NN2C(=O)C=C(c3ccccc3)C2=O)cc1 | inactive
CNC(=O)Nc1cccc(-c2ccnc(C)n2)c1 | inconclusive: 5.01 µM [inhibitor, full curve]
O=C1/C(=C\c2ccco2)SC(=S)N1Cc1ccccc1 | inconclusive: 28.2 µM [inhibitor, partial curve]
CC(Sc1ncc(C(F)(F)F)cc1Cl)C(=O)NCC1CCCO1 (centres undefined) | inconclusive: 44.7 µM [inhibitor, single point]
O=C1CCCC2=C1Sc1ccc(Cl)cc1N2 | inactive
CCN1CCN(c2nc3sc4c(c3c(=O)n2-c2ccc(OC)cc2)CCCCC4)CC1 | inconclusive: 44.7 µM [inhibitor, single point]
N#CCCN(CC#Cc1ccccc1)OCc1ccccc1 | inconclusive: 4.47 µM [inhibitor, partial curve]
CCCSC1=N/C(=C\C=C\c2ccco2)C(=O)S1 | active: 3.98 µM
O=C(O)CC/C(=N\NC(=O)c1ccccc1Br)c1ccccc1 | inconclusive: 44.7 µM [inhibitor, single point]
Cn1nc(C(=O)NNC(=O)C2CSC3(C)CCC(=O)N23)c2ccccc2c1=O (centres undefined) | inactive
COCC(C)n1c(SCC(=O)N(C)C2CCS(=O)(=O)C2)nc2ccccc2c1=O (centres undefined) | inactive
C=C(C)C(=O)Nc1cccc(C2=NOC3(C2)C[C@H](C(N)=O)N(C(=O)C(c2ccccc2)c2ccccc2)C3)c1 (some centres undefined) | inconclusive: 25.1 µM [inhibitor, partial curve]
C=CCn1c(C)cc(C(=O)COC(=O)c2ccc(N)c([N+](=O)[O-])c2)c1C | inactive
COc1ccc(Oc2ncc3nc(-c4ccc(Cl)cc4)c(=O)n(CCC#N)c3n2)cc1 | inconclusive: 8.91 µM [inhibitor, single point]
CC1CCN(c2cc(N(C)CCO)c([N+](=O)[O-])c3nonc23)CC1 | inconclusive: 0.0112 µM [inhibitor, full curve, poor fit]
Cc1ccn2c(=O)nc(SCC(=O)NCc3ccccc3Cl)nc2c1 | inactive
S=C(NCc1ccccc1)NN1CCOCC1 | inconclusive: 0.1 µM [inhibitor, full curve, poor fit]

A draw from above in order of length of the SMILES, smallest number first.
Compound | Potency
O=C1CCCC2=C1Sc1ccc(Cl)cc1N2 | inactive
O=C(N/N=C/c1ccc([N+](=O)[O-])o1)C1CC1 | inconclusive: 20 µM [inhibitor, partial curve]
CC(Sc1ncc(C(F)(F)F)cc1Cl)C(=O)NCC1CCCO1 (centres undefined) | inconclusive: 44.7 µM [inhibitor, single point]
CC(=O)N1[C@H](Cc2ccccc2)C=C[C@]1(C)C(=O)NCc1ccccn1 | inconclusive: 3.16 µM [inhibitor, single point]
C=CCn1c(C)cc(C(=O)COC(=O)c2ccc(N)c([N+](=O)[O-])c2)c1C | inactive

Following part.

Compound | Potency
COc1ccc2c(=O)c(-c3ccccc3)coc2c1 | inconclusive: 39.8 µM [inhibitor, single point]
C#CCn1c(=O)c2c(nc(/C=C/c3cccc(OC)c3)n2C)n(CCCO)c1=O | inactive
O=C(Nc1cccc(Cl)c1)c1cccc(N2C(=O)C3CC=CCC3C2=O)c1 (centres undefined) | inconclusive: 26.7 µM [inhibitor, single point]
Cc1ccc2nc(NC(=O)c3ccc(S(=O)(=O)N4CCCc5ccccc54)cc3)sc2c1 | inconclusive: 39.8 µM [inhibitor, single point]
O=C1CN(C(=O)COC(=O)CCC(=O)c2ccc3c(c2)OCCO3)c2ccccc2N1 | inconclusive: 35.5 µM [inhibitor, single point]
Cc1ccc(S(=O)(=O)c2cc3cc(Br)ccc3oc2=O)cc1 | inconclusive: 44.7 µM [inhibitor, partial curve, poor fit]
C=C1CC2C(=O)N(Cc3ccccc3)C(C(=O)O)C1N2C(=O)OC(C)(C)C (centres undefined) | inactive
O=C(c1cccc(C(=O)N2CCN(c3ncccn3)CC2)c1)N1CCN(c2ncccn2)CC1 | inactive
CC(/C=N/NC(=O)c1c(Br)cnn1C)=C\c1ccccc1 | inconclusive: 8.91 µM [inhibitor, single point]
O=C(c1cccc(N2C(=O)C3CC=CCC3C2=O)c1)N1CCCc2ccccc21 (centres undefined) | inconclusive: 7.94 µM [inhibitor, single point]
Cc1nnc(NC(=O)C2CC(=O)N(c3ccc4c(c3)OCCO4)C2)s1 (centres undefined) | inactive
Cc1occc1-c1nnc(SCC(=O)NC(C)(C)C)n1CC(C)C | inactive
Cc1oc2c(C)c3oc(=O)c(CC(=O)N[C@@H](CC(C)C)C(=O)N[C@@H](Cc4ccccc4)C(=O)O)c(C)c3cc2c1C | inconclusive: 23.8 µM [inhibitor, single point]
Cc1cc(N2CCN(c3ccccc3F)CC2)nc2cc(O)ccc12 | inactive
CCOC(=O)N1CCC(Nc2c(NCCCN3CCN(C4CCCCC4)CC3)c(=O)c2=O)CC1 | inactive
CCCN1C(=O)/C(=C\C=C2/Sc3ccccc3N2CC)SC1=S | inactive
COc1ccc(S(=O)(=O)NCc2ccc(C(=O)NCc3cccnc3)cc2)cc1 | inconclusive: 0.0316 µM [inhibitor, full curve, poor fit]
O=C(NNC(=O)c1cc2cc3ccccc3nc2s1)c1ccc(F)cc1 | active: 6.31 µM
N#C/C(=C\c1ccc(O)c(O)c1)C(=O)N1CCc2ccccc21 | inactive
NS(=O)(=O)c1cccc(NS(=O)(=O)c2ccc(/C=C/C(=O)OCC(=O)c3ccc(Br)cc3)cc2)c1 | inactive
Cc1nn(C)c(N)c1[N+](=O)[O-] | inconclusive: 3.55 µM [inhibitor, single point]
O=C(Nc1ccc(S(=O)(=O)Nc2ccccn2)cc1)C(F)(F)F | inconclusive: 31.6 µM [inhibitor, single point]
CN(C)c1ccc(NC(=O)c2cnsn2)cc1 | inconclusive: 7.08 µM [inhibitor, single point]
CCc1sc(C(=O)Nc2ncccc2O)cc1C | inconclusive: 10.6 µM [inhibitor, partial curve]

Compound | Potency
C[C@H]1[C@H]2CC[C@H]3C4CC=C5C[C@@H](N(C)C)CC[C@]5(C)C4CC[C@]23CN1C (some centres undefined) | inconclusive: 44.7 µM [inhibitor, single point]
CC(C)=CCC/C(C)=C/CC/C(C)=C/CSc1ccccc1C(=O)O | inactive
Cc1cc(C(=O)COC(=O)c2ccc(O)cc2)c(C)n1CC1CCCO1 (centres undefined) | inconclusive: 6.31 µM [inhibitor, full curve]
O=C(Oc1cccc(/C=N/Nc2nc(Nc3ccccc3)nc(N3CCOCC3)n2)c1)c1ccco1 | inactive
O=C(CCCN1C(=O)c2ccccc2C1=O)NCCCn1ccnc1 | inconclusive: 0.141 µM [inhibitor, partial curve]
CCCCC(NC(=O)c1ccc(Cl)cc1)C(=O)O (centres undefined) | inconclusive: 44.7 µM [inhibitor, single point]
O=C(NCc1ccc(Cl)cc1)c1ccc2nc[nH]c2c1 | inconclusive: 31.6 µM [inhibitor, single point]
Cc1c(CCO)c(=O)n(-c2ccccc2)n1S(=O)(=O)c1c(Cl)cc(Cl)cc1Cl | inconclusive: 39.8 µM [inhibitor, single point]
O=C(CSc1nncs1)N1CCN(S(=O)(=O)c2ccccc2)CC1 | inactive
CCOC(=O)Cc1csc(NC(=O)C2C3C=CC(C3)C2C(=O)O)n1 (centres undefined) | inconclusive: 5.62 µM [inhibitor, single point]
O=C(COC(=O)CCC(=O)c1ccc(F)cc1)Nc1ccc(N2CCOCC2)cc1 | inconclusive: 15.8 µM [inhibitor, partial curve]
CC1(OC(=O)c2ccco2)C(=O)C=C2C=C(c3ccsc3)OC=C2C1=O (centres undefined) | inconclusive: 39.8 µM [inhibitor, single point]
Cc1c(N2C(=O)c3ccc4c5c(ccc(c35)C2=O)CC4)c(=O)n(-c2ccccc2)n1C | inconclusive: 17.8 µM [inhibitor, partial curve]
Cc1ccc(C)n1-c1sc2c(c1C(=O)O)CCCC2 | inconclusive: 31.6 µM [inhibitor, single point]
COc1ccc(-n2nc3cc(C)c(N)c(Br)c3n2)cc1 | inactive
COC(=O)C1=C(C)N=c2s/c(=C/c3cccs3)c(=O)n2C1c1cccs1 (centres undefined) | inactive
O=C(Nc1ccc(F)cc1)C1CCN(S(=O)(=O)c2cccs2)CC1 | inconclusive: 7.94 µM [inhibitor, single point]
COC(=O)CCC(=O)OC1(C)C(=O)C=C2C=C(C3CC3)N(C(CO)CO)C=C2C1=O (centres undefined) | inactive
COc1cccc(/C=N\NC(=O)C2C(=O)NCC2c2ccccc2)c1O (centres undefined) | inactive
CCOC(=O)c1c(NC(=O)CSc2ncnc3ccccc23)sc(C)c1C | inconclusive: 35.5 µM [inhibitor, single point]
CC(C)OC(=O)CSc1nnc2c3ccccc3n(C)c2n1 | inactive
c1ccc(-c2nc(-c3cccc4ccccc34)c(NC3CCCCC3)o2)cc1 | inactive
CCC(=O)Nc1nnc(C)s1 | inconclusive: 22.4 µM [inhibitor, single point]
COC(=O)c1ccccc1NC(=O)COC(=O)/C=C/c1ccco1 | inconclusive: 15.8 µM [inhibitor, partial curve]
